Test results: patent US20130034559A1
No constants are given. Whether binding was seen depends on the method and setting. For part of these data: A result given as binding can be weak or reduced; the word gives no strength.

Amino acid sequences for entries named in this document (tags omitted). A change or cut given only in a name is not applied to a line headed by its entry.
UniProt Q5ZPR3: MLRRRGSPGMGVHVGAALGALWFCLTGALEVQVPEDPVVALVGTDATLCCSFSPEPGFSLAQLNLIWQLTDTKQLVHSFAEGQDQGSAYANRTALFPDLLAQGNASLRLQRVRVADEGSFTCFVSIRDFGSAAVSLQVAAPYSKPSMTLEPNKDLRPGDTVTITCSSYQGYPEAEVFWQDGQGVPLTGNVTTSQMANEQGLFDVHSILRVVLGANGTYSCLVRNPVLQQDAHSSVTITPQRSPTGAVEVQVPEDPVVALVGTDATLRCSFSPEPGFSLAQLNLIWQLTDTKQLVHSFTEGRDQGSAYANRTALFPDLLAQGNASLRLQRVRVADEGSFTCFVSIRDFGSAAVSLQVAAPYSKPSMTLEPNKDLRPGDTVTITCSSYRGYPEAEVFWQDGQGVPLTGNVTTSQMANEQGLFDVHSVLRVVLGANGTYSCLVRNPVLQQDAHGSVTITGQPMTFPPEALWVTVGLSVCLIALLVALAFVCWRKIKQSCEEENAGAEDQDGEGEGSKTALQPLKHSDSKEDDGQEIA

Tests used:
[1] = molecular target: extracellular domain of human B7-H3 (R&D Systems, 1027-B3) (human) (UniProt Q5ZPR3); test: ELISA, biotinylated IgG1-TM on coated ECD
[2] = molecular target: recombinant monomeric cynomologus B7-H1 FlagHis10 extracellular domain (cynomologus); test: SPR (BIAcore T100)

B1: 2.7A4OPT (antibody, V domains shown)
VH: EVQLVESGGGLVKPGGSLRLSCAASGFTFSTYSMNWVRQAPGKGLEWVSSISSSGDYIYYADSVKGRFTISRDNAKNSLYLQMNSLRAEDTAVYYCARDLVTSMVAFDYWGQGTLVTVSS
VL: SYELTQPPSVSVSPGQTARITCSGDALPQKYVFWYQQKSGQAPVLVIYEDSKRPSGIPERFSGSSSGTMATLTISGAQVEDEADYYCYSTDRSGNHRVFGGGTKLTVL
How did the binding [1] turn out when B1 was run?
Its binding is “no binding (tested: 100 nM)”.

What about the binding [2] of the same binder?
Its binding is “binds”.

B2: 2.9D10 in the IgG1-TM format (antibody, V domains shown)
VH: EVQLVESGGGLVQPGGSLRLSCAASGFTFSSYWMSWVRQAPGKGLEWVANIKQDGGEQYYVDSVKGRFTISRDNAKNSLYLQMNSLRAEDTAVYYCARDWNYGYYDMDVWGQGTTVTVSS
VL: EIVLTQSPGTLSLSPGERATLSCRASQSVSSNYLAWFQQKPGQAPRLLIFGTSSRATGIPDRFSGSGSGTDFTLTISRLEPEDFAVYYCQQYGSSIFTFGPGTKVDIK
Which binding [1] does the source give for B2 here?
The binding was “no binding (tested: 100 nM)”.
